Binding data for five molecules are collected here from article PMC7366679.

Protein sequences, listed by entry. Tags and fused reporters are not part of them.
UniProt Q9Y4B6: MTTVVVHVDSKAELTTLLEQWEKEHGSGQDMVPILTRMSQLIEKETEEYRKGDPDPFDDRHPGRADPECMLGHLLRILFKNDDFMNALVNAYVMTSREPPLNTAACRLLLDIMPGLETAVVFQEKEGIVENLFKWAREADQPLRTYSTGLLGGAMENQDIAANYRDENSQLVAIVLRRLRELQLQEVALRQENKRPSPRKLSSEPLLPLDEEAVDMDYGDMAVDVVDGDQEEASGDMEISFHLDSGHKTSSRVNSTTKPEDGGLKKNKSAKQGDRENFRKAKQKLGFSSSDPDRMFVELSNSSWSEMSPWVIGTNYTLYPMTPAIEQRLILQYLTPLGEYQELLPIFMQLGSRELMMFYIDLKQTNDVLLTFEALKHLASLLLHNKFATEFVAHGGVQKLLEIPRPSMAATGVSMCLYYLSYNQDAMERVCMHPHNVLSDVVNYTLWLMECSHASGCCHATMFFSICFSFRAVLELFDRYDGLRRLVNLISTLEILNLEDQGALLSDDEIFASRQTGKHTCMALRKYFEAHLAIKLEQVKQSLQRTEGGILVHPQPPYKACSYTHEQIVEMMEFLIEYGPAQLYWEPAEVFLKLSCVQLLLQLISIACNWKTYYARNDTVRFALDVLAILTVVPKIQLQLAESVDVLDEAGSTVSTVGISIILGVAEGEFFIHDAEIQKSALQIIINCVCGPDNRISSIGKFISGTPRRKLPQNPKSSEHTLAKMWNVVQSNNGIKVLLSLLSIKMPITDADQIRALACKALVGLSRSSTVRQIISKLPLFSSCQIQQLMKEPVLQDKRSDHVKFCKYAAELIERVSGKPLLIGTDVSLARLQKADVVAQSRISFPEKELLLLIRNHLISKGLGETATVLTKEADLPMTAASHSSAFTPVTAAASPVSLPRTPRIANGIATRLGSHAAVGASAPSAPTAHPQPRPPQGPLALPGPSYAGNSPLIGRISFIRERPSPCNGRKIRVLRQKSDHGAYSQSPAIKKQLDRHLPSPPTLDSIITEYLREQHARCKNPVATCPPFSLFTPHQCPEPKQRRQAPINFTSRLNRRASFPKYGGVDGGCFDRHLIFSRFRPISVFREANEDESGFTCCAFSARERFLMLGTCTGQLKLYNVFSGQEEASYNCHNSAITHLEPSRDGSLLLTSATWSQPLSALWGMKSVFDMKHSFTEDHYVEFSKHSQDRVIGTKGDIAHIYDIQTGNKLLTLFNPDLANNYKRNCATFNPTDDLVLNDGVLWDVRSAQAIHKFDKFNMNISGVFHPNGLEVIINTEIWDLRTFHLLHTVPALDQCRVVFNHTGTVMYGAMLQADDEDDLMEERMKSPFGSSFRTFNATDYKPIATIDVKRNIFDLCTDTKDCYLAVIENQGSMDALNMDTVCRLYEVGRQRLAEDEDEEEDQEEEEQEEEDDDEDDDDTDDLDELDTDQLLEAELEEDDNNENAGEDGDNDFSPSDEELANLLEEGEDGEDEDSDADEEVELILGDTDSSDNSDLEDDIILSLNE
UniProt Q16531: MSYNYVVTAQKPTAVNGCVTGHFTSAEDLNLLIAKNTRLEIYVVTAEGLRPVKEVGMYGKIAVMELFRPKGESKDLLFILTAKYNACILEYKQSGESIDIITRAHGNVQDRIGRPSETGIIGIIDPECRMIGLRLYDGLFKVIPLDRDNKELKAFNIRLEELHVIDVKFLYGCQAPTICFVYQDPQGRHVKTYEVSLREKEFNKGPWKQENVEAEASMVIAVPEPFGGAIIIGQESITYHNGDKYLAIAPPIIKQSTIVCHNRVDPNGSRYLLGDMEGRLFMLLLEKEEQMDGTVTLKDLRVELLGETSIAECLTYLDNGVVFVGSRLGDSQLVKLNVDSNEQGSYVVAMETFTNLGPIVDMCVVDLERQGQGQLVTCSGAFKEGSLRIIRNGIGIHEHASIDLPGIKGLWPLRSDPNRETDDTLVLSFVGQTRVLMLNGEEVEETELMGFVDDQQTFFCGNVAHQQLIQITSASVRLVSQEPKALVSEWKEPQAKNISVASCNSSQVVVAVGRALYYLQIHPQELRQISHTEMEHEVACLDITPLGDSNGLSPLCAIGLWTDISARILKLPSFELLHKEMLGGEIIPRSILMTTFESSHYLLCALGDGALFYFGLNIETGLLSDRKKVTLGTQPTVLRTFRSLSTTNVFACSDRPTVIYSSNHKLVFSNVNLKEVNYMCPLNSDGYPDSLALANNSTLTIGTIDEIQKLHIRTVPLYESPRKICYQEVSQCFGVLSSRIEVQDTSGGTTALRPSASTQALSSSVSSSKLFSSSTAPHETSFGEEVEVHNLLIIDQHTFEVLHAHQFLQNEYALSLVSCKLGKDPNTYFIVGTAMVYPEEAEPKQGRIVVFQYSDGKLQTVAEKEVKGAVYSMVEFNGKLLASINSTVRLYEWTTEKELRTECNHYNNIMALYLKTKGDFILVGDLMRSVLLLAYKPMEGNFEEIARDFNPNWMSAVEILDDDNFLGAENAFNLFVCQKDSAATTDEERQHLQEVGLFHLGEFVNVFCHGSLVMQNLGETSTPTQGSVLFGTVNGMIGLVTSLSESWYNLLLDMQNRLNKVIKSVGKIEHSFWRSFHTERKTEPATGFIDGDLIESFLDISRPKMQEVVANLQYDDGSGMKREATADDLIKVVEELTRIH

Experiment [1] deals with T1, Dyrk2, wild type, tagged bait (Strep-HA or FLAG-BirA*; which is not told for these hits) (human) (UniProt Q92630).
T1 sequence: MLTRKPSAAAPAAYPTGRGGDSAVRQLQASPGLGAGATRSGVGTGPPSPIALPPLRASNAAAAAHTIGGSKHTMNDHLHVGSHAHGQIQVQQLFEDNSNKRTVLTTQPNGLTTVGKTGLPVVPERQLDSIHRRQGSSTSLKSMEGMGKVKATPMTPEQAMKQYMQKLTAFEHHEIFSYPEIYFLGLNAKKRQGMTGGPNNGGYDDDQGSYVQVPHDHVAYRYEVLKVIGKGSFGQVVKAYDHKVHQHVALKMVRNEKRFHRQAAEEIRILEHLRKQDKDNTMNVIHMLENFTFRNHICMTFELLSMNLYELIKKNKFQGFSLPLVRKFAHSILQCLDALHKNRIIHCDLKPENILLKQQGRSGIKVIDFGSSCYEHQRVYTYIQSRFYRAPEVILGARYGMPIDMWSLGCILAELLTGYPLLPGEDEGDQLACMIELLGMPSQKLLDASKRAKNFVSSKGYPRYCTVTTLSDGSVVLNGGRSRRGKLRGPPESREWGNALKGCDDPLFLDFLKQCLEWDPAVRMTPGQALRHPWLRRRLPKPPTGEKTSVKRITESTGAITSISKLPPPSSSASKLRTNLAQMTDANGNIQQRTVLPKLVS
The experiment is described as follows: affinity purification with mass spectrometry + proximity labelling; reference interaction network of the wild-type baits (Dyrk2, DDB1, VprBP, Ubr5) in T-REx HEK293 cells; the text does not tell by which of the two methods the hit was found.

Experiment [2] addresses T2, Strep-HA-tagged Dyrk2 (dual-specificity tyrosine-phosphorylation-regulated kinase 2), wild type (human) (UniProt Q92630).
T2 sequence: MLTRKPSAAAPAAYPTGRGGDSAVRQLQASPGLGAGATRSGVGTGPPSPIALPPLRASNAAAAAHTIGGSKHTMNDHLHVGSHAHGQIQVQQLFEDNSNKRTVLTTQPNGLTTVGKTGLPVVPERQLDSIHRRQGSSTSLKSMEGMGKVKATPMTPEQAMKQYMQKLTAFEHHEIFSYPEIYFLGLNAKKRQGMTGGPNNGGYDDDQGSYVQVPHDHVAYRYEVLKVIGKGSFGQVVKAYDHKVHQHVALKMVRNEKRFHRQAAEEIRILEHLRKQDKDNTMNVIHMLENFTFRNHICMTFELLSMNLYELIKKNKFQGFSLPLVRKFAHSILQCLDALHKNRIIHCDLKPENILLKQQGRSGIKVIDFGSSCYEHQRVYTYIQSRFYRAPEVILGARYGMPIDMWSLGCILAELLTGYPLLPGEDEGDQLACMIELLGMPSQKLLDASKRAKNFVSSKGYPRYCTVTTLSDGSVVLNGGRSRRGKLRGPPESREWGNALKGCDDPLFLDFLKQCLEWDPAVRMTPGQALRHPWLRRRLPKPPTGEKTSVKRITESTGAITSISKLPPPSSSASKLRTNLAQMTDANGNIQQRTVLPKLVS
The experiment is described as follows: affinity purification with mass spectrometry; Strep/HA (SH)-tagged bait stably integrated in T-REx HEK293 Flp-In cells, induced 24 h; lysate (0.5% NP40, 50 mM HEPES pH 7.5, 150 mM NaCl, 50 mM NaF) on Strep-Tactin beads, eluted with 2 mM biotin; SAINTexpress score > 0.95 against Strep/HA-GFP controls and CRAPome filter; mutants compared with wild type by bait-normalised LFQ MS1 intensities.

Experiment [3] has as its target T3, FLAG-BirA*-tagged Dyrk2, wild type (human) (UniProt Q92630).
T3 sequence: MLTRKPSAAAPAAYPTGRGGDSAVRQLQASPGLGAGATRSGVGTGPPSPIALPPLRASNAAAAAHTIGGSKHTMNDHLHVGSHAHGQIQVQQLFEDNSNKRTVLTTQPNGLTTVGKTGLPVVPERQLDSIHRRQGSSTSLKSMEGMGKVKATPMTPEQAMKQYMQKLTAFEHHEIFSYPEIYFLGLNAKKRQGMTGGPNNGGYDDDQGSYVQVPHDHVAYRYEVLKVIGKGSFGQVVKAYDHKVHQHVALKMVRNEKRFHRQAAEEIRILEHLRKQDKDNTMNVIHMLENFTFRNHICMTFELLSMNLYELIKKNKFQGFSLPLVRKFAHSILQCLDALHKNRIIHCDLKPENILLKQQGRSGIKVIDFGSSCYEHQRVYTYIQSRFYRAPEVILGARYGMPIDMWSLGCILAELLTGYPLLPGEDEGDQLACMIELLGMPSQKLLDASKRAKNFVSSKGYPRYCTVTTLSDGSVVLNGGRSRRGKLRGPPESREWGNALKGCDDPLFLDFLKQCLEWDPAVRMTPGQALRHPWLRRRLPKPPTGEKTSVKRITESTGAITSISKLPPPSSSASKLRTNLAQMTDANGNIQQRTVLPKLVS
The experiment is described as follows: proximity labelling; BioID-MS: FLAG-BirA*-tagged bait stably expressed in T-REx HEK293 Flp-In cells, 50 uM biotin for 24 h, RIPA lysate on Strep-Tactin beads, on-bead digest; SAINTexpress score = 1 against BirA*-GFP and no-biotin controls; mutants compared with wild type by bait-normalised LFQ MS1 intensities.

No constants are given. Whether binding was seen depends on the method and setting. Binding seen in cells or lysates may run through a third protein. A yes stands for co-enrichment or nearness to the bait. Other partners may have been found. Where a sequence is shown, tags or fusion partners need not be part of it.

In the case of p53 (from UniProt P04637 1-393), in experiment [1], the binding entry was “binds”.
In the case of VprBP (from UniProt Q9Y4B6 1-1507), the binding entry in experiment [2] and in experiment [3] was “binds” in each case.
Consider DDB1 (from UniProt Q16531 1-1140), for which the binding entry in experiment [2] and in experiment [3] was “binds” each time.
With “ubiquitin ligase Birc6 (from UniProt Q9NR09 1-4857)”, in experiment [1], the binding result is “binds”.

B1: NUP85 (protein, UniProt Q9BW27 1-656)
chain: MEELDGEPTVTLIPGVNSKKNQMYFDWGPGEMLVCETSFNKKEKSEMVPSCPFIYIIRKDVDVYSQILRKLFNESHGIFLGLQRIDEELTGKSRKSQLVRVSKNYRSVIRACMEEMHQVAIAAKDPANGRQFSSQVSILSAMELIWNLCEILFIEVAPAGPLLLHLLDWVRLHVCEVDSLSADVLGSENPSKHDSFWNLVTILVLQGRLDEARQMLSKEADASPASAGICRIMGDLMRTMPILSPGNTQTLTELELKWQHWHEECERYLQDSTFATSPHLESLLKIMLGDEAALLEQKELLSNWYHFLVTRLLYSNPTVKPIDLHYYAQSSLDLFLGGESSPEPLDNILLAAFEFDIHQVIKECSIALSNWWFVAHLTDLLDHCKLLQSHNLYFGSNMREFLLLEYASGLFAHPSLWQLGVDYFDYCPELGRVSLELHIERIPLNTEQKALKVLRICEQRQMTEQVRSICKILAMKAVRNNRLGSALSWSIRAKDAAFATLVSDRFLRDYCERGCFSDLDLIDNLGPAMMLSDRLTFLGKYREFHRMYGEKRFADAASLLLSLMTSRIAPRSFWMTLLTDALPLLEQKQVIFSAEQTYELMRCLEDLTSRRPVHGESDTEQLQDDDIETTKVEMLRLSLARNLARAIIREGSLEGS
For the molecule B1, the binding entry in experiment [3] is reported as “binds”.
